Measured values published in the supplement of paper PMC11348887.
Where a name gives a salt, the structure may show the parent alone. The list shows a part of the results. Most entries show no effect beyond the scatter of the controls.

test system: hPSC-derived cortical neurons (WA09); test: nucleus roundness z-score vs screen plate; higher = rounder nuclei (more mature); details: 5 µM; treatment: days 7-14 after plating, readout day 21

Row | Compound | nucleus roundness z-score
1 | CC(=O)O[C@]1(C(C)=O)CC[C@H]2[C@@H]3C=C(Cl)C4=CC(=O)[C@@H]5C[C@@H]5[C@]4(C)[C@H]3CC[C@@]21C [Cyproterone Acetate] | -2.16
2 | C[C@H](CCC(=O)NCCS(=O)(=O)O)[C@H]1CC[C@H]2[C@@H]3[C@@H](O)C[C@@H]4C[C@H](O)CC[C@]4(C)[C@H]3CC[C@]12C [Sodium Tauroursodeoxycholate (TUDC)] | 0.632
3 | CNC(=O)c1cc(Oc2ccc(NC(=O)Nc3ccc(Cl)c(C(F)(F)F)c3)c(F)c2)ccn1 [Regorafenib (BAY 73-4506)] | 0.25
4 | NC(=O)N1c2ccccc2CC(=O)c2ccccc21 [Oxcarbazepine] | -1.57
5 | CN1CCN(c2c(F)cc3c(=O)c(C(=O)O)cn4c3c2OCN4C)CC1 [Marbofloxacin] | -0.972
6 | O=C(O)CCc1nc(-c2ccccc2)c(-c2ccccc2)o1 [Oxaprozin] | 0.647
7 | CNC(=O)c1cccc(-c2ccc3c(N4CCOC[C@@H]4C)nc(N4CCOC[C@@H]4C)nc3n2)c1 | -2.7
8 | Cc1cnc(Nc2ccc(N3CCN(C)CC3)cc2)nc1Nc1cccc(S(=O)(=O)NC(C)(C)C)c1 | -1.57
9 | COc1cc2ncnc(Nc3cccc(Cl)c3)c2cc1OC [AG-1478 (Tyrphostin AG-1478)] | -0.11
10 | Cn1cc(CNCC2CCN(c3ncc(C(=O)NO)cn3)CC2)c2ccccc21 | -2.7
11 | Nc1nc(CC(=O)Nc2ccc(CCNC[C@H](O)c3ccccc3)cc2)cs1 [Mirabegron] | 0.167
12 | C[C@H](CCC(=O)O)[C@H]1CC[C@H]2[C@@H]3[C@@H](O)C[C@@H]4C[C@H](O)CC[C@]4(C)[C@H]3CC[C@]12C [Ursodiol] | -1.47
13 | O=C(NC(NC(=S)Nc1ccc(F)c([N+](=O)[O-])c1)C(Cl)(Cl)Cl)C(c1ccccc1)c1ccccc1 (stereo not given) | 0.0376
14 | CC(=O)N[C@@H](CCC(N)=O)C(=O)O [Aceglutamide] | 0.143
15 | COc1cc2c(cc1OC)C(=O)C(CC1CCN(Cc3ccccc3)CC1)C2 (stereo not given) [Donepezil HCl] | -0.0629
16 | CCCC(=O)OCOC(=O)C1=C(C)NC(C)=C(C(=O)OC)C1c1cccc(Cl)c1Cl (stereo not given) [Clevidipine Butyrate] | -0.591
17 | Nc1ccc(C(=O)NCC(=O)O)cc1 [4-Aminohippuric Acid] | 0.827
18 | C[C@H](NC(=O)C(=O)Nc1ccccc1C(C)(C)C)C(=O)N[C@@H](CC(=O)O)C(=O)COc1c(F)c(F)cc(F)c1F [Emricasan] | 1.21

Looked up by compound from the entries so far, two records:
Row | Compound | nucleus roundness z-score
3 | CNC(=O)c1cc(Oc2ccc(NC(=O)Nc3ccc(Cl)c(C(F)(F)F)c3)c(F)c2)ccn1 [Regorafenib (BAY 73-4506)] | 0.25
15 | COc1cc2c(cc1OC)C(=O)C(CC1CCN(Cc3ccccc3)CC1)C2 (stereo not given) [Donepezil HCl] | -0.0629

Next entries follow:

Row | Compound | nucleus roundness z-score
19 | O=C(Nc1ccccc1)N1CCN(c2nc(-c3ccccc3)ns2)CC1 | 0.998
20 | NC(=O)[C@@H]1CCCN1C(=O)[C@H](Cc1c[nH]cn1)NC(=O)[C@@H]1CCC(=O)N1 [Protirelin] | -0.659
21 | Cc1ccc2nc(NCCN)c3ncc(C)n3c2c1 | -0.877
22 | CN1CCN(c2ccc(OC(F)(F)F)c(Nc3ncc4c(n3)-c3c(c(C(N)=O)nn3CCO)CC4)c2)CC1 | 0.299
23 | COc1ccc(-c2ccc3cc(C(=O)O)ccc3c2)cc1C12CC3CC(CC(C3)C1)C2 [Adapalene] | 0.546
24 | CC1(C)S[C@@H]2[C@H](NC(=O)C(C(=O)O)c3ccccc3)C(=O)N2[C@H]1C(=O)O (stereo not given in full) [Carbenicillin disodium] | -1.34
25 | Cc1c[nH]c(/C=C2\C(=O)Nc3ccccc32)c1CCC(=O)O | -0.907
26 | NS(=O)(=O)c1cc2c(cc1Cl)NCNS2(=O)=O [Hydrochlorothiazide] | -1.36
27 | Cc1nc(C)c(Cl)c(O)c1Cl [Clopidol] | 0.8
28 | C=C1C(=O)O[C@@H]2/C=C(\C)CC/C=C(\C)CC[C@@H]12 [Costunolide] | -2.07
29 | C[N+]1(C)[C@@H]2C[C@@H](OC(=O)C(O)(c3cccs3)c3cccs3)C[C@H]1[C@@H]1O[C@@H]12 [Tiotropium Bromide hydrate] | -0.133
30 | COc1cc(NC(=O)c2ccccn2)ccc1Cl | 0.231
31 | Nc1[nH]cnc2ncnc1-2 [Adenine HCl] | 0.299
32 | COc1cc(C(=O)O)ccc1NC(=O)[C@@H]1N[C@@H](CC(C)(C)C)[C@](C#N)(c2ccc(Cl)cc2F)[C@H]1c1cccc(Cl)c1F [Idasanutlin (RG-7388)] | 0.259
33 | CN1CCc2c(c3ccccc3n2Cc2ccc(C(=O)NO)cc2)C1 [Tubastatin A] | -0.344
34 | O=C(O)CCC(=O)c1ccc(-c2ccccc2)cc1 [Fenbufen] | -3.02
35 | C=CCc1ccc(O)c(-c2cc(CC=C)ccc2O)c1 [Magnolol] | -0.0745
